Reference: paper PMC11335579
Results are given in words; binding and its absence hold for the method and conditions named. In cells and extracts the contact can be indirect. Some results given as binding are weak or reduced against the parent protein; the word gives no strength.

Amino acid sequences for entries named in this document (tags omitted). Residues count along the entry.
UniProt P46937: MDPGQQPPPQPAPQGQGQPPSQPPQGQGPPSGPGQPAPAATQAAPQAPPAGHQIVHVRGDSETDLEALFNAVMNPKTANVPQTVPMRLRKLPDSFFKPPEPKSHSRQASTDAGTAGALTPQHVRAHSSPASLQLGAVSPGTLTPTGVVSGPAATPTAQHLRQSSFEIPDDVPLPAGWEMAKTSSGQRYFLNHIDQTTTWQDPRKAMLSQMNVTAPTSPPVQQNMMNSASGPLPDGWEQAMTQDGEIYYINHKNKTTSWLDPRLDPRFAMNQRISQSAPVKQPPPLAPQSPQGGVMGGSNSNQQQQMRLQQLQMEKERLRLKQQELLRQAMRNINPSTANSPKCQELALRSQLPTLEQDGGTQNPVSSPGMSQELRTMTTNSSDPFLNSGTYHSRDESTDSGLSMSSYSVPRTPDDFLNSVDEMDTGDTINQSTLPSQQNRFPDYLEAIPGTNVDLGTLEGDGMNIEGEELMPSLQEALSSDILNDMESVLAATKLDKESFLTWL
UniProt P29279, residues 27-349: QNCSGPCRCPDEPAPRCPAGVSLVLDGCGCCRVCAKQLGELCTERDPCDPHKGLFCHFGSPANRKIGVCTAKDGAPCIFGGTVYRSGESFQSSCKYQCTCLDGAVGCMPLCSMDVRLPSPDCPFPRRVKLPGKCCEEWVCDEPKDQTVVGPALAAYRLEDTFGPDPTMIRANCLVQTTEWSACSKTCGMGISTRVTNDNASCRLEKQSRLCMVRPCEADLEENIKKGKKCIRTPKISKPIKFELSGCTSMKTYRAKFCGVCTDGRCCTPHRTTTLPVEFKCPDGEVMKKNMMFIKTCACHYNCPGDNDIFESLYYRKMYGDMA

Biological target: Yes-associated protein (YAP) (human (endogenous in CAFs from NSCLC patients)) (UniProt P46937)
Assay: co-IP; lysates of the indicated CAFs; coimmunoprecipitation kit (Absin #abs9649); lysate with YAP, CD248 or rabbit IgG antibody (2 ug per 1 mg of total protein) for 60 min, then secondary-antibody-bound beads overnight at 4°C; Western blot

“Connective tissue growth factor (CTGF) (from UniProt P29279 27-349)” was tested, and the binding was “binds”.
